Data as given in publication PMC6156844.

Molecular target: HIV-1 integrase (abstract P7) (HIV-1)
Experiment: assembly of multiprotein complexes; multiprotein complexes assembled in vitro and/or in cellulo around the integrase protein and DNA

B1: TNPO3 (protein, UniProt Q9Y5L0 1-923)
chain: MEGAKPTLQLVYQAVQALYHDPDPSGKERASFWLGELQRSVHAWEISDQLLQIRQDVESCYFAAQTMKMKIQTSFYELPTDSHASLRDSLLTHIQNLKDLSPVIVTQLALAIADLALQMPSWKGCVQTLVEKYSNDVTSLPFLLEILTVLPEEVHSRSLRIGANRRTEIIEDLAFYSSTVVSLLMTCVEKAGTDEKMLMKVFRCLGSWFNLGVLDSNFMANNKLLALLFEVLQQDKTSSNLHEAASDCVCSALYAIENVETNLPLAMQLFQGVLTLETAYHMAVAREDLDKVLNYCRIFTELCETFLEKIVCTPGQGLGDLRTLELLLICAGHPQYEVVEISFNFWYRLGEHLYKTNDEVIHGIFKAYIQRLLHALARHCQLEPDHEGVPEETDDFGEFRMRVSDLVKDLIFLIGSMECFAQLYSTLKEGNPPWEVTEAVLFIMAAIAKSVDPENNPTLVEVLEGVVRLPETVHTAVRYTSIELVGEMSEVVDRNPQFLDPVLGYLMKGLCEKPLASAAAKAIHNICSVCRDHMAQHFNGLLEIARSLDSFLLSPEAAVGLLKGTALVLARLPLDKITECLSELCSVQVMALKKLLSQEPSNGISSDPTVFLDRLAVIFRHTNPIVENGQTHPCQKVIQEIWPVLSETLNKHRADNRIVERCCRCLRFAVRCVGKGSAALLQPLVTQMVNVYHVHQHSCFLYLGSILVDEYGMEEGCRQGLLDMLQALCIPTFQLLEQQNGLQNHPDTVDDLFRLATRFIQRSPVTLLRSQVVIPILQWAIASTTLDHRDANCSVMRFLRDLIHTGVANDHEEDFELRKELIGQVMNQLGQQLVSQLLHTCCFCLPPYTLPDVAEVLWEIMQVDRPTFCRWLENSLKGLPKETTVGAVTVTHKQLTDFHKQVTSAEECKQVCWALRDFTRLFR
  binding: binds

Results are given in words; binding and its absence hold for the method and conditions named. Binding can be weak; no strength is given.
